Measured values from the supplement of paper PMC10849652.
This is one part of the list.

Amino acid sequences for entries named in this document (tags omitted). A change or cut given only in a name is not applied to a line headed by its entry.
UniProt O75064: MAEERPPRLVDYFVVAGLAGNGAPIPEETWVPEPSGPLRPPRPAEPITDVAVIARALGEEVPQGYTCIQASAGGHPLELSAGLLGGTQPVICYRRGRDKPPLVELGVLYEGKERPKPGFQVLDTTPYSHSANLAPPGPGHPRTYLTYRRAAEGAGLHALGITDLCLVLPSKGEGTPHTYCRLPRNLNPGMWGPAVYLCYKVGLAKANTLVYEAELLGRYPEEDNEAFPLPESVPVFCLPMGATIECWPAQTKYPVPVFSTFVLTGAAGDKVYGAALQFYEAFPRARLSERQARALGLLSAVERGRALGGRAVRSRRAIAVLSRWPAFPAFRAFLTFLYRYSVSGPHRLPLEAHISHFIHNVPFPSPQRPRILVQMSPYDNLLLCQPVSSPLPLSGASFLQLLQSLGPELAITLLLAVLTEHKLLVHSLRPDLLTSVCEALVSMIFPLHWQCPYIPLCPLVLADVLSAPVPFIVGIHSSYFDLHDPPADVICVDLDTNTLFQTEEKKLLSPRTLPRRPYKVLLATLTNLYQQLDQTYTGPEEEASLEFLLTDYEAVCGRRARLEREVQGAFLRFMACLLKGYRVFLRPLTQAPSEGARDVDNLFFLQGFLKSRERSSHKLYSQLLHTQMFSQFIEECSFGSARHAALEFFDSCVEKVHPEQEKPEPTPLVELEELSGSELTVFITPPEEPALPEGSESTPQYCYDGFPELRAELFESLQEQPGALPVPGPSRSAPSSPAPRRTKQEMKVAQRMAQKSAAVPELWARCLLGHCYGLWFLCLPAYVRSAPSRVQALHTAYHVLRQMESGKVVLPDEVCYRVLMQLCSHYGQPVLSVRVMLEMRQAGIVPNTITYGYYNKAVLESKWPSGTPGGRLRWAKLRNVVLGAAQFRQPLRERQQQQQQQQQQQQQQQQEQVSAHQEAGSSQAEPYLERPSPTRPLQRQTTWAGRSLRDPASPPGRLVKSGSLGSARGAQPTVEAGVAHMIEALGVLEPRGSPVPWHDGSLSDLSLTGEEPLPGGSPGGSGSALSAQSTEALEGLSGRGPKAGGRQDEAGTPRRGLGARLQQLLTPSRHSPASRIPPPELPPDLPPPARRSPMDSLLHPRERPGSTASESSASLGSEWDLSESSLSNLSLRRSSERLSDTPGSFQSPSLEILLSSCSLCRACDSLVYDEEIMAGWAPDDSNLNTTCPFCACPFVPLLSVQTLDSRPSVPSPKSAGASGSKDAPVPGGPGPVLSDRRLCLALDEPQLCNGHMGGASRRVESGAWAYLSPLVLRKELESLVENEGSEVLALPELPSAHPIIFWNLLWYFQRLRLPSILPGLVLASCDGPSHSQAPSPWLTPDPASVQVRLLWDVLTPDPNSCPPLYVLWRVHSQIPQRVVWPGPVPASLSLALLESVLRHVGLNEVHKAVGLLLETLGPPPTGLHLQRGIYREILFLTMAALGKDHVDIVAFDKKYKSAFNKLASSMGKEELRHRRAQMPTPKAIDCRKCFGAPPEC
UniProt Q9BTE1, whole entry, looked up: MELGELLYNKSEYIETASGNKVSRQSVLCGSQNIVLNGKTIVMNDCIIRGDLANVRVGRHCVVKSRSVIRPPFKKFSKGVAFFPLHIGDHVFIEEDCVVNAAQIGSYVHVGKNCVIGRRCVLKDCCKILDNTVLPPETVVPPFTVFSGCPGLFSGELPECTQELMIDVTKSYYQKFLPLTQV
UniProt P39656: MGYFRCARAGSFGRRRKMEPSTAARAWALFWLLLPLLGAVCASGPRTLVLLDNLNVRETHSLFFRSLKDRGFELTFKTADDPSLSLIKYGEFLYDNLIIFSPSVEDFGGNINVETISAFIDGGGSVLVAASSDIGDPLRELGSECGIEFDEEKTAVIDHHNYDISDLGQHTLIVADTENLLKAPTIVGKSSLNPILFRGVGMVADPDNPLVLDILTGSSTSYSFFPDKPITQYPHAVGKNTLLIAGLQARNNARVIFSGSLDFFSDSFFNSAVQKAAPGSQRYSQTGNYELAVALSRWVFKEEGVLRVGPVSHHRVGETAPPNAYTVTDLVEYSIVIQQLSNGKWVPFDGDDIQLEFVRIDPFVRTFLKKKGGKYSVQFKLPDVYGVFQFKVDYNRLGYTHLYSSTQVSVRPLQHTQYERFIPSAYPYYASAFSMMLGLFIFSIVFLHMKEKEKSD
UniProt Q96HY6: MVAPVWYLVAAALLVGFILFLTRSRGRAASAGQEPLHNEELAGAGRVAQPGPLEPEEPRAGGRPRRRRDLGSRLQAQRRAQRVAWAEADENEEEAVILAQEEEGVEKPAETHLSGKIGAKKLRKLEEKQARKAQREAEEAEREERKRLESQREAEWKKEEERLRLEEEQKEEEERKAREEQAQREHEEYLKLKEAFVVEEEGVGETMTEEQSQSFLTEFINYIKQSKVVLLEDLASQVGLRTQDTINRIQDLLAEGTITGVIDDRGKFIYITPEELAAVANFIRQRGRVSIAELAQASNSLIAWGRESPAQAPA
UniProt Q9H8H2: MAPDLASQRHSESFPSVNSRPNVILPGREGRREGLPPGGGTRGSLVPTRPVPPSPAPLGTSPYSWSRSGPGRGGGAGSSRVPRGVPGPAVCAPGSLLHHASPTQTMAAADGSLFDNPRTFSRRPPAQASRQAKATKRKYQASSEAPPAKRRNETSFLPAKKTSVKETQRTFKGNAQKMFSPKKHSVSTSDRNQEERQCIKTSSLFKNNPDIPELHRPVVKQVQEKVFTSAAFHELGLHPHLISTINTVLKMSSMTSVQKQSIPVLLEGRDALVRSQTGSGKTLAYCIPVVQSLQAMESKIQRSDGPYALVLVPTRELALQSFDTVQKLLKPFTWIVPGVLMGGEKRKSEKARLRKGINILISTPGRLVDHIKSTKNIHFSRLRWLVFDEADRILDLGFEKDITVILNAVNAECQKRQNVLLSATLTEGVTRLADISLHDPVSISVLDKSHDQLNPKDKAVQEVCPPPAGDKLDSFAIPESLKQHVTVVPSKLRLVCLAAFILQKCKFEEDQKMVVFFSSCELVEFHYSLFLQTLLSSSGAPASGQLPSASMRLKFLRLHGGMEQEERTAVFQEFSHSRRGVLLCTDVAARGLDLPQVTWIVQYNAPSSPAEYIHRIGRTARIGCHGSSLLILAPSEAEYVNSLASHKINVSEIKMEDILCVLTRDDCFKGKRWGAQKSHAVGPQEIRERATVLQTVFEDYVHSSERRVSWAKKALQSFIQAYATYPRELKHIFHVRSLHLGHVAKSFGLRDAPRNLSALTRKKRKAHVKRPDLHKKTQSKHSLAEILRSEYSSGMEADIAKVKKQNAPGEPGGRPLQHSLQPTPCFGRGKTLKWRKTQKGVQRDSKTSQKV
UniProt Q15038: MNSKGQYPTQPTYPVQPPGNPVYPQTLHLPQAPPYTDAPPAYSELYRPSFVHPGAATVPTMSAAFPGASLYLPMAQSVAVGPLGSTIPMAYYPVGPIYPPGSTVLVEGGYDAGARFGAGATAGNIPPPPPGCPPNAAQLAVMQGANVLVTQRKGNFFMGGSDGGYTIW
UniProt Q9UJU6: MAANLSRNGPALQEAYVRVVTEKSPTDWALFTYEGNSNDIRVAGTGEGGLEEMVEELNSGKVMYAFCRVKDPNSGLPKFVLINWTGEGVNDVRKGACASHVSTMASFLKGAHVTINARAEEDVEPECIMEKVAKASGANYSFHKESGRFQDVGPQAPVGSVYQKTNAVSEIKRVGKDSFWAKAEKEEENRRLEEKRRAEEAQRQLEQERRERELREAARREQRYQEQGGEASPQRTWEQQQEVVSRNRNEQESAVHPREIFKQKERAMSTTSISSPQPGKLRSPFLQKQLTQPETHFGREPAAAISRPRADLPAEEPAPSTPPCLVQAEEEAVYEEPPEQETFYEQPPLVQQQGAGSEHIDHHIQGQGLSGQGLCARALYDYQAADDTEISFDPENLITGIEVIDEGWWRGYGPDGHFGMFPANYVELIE
UniProt O75398: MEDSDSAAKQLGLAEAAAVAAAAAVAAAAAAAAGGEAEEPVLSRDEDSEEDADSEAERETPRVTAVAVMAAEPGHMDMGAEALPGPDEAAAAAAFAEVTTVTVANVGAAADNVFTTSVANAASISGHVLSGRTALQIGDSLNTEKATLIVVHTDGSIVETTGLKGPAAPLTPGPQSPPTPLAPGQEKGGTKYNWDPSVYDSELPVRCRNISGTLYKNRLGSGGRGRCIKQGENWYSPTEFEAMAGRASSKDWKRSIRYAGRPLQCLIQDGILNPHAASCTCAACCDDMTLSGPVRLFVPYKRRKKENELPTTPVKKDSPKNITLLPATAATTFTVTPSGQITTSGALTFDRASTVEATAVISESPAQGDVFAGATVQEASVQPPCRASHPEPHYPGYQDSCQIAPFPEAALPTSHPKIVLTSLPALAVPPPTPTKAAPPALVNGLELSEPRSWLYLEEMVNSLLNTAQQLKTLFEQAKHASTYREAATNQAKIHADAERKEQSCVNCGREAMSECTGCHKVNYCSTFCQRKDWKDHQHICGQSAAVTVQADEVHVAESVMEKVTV
UniProt Q5VW00: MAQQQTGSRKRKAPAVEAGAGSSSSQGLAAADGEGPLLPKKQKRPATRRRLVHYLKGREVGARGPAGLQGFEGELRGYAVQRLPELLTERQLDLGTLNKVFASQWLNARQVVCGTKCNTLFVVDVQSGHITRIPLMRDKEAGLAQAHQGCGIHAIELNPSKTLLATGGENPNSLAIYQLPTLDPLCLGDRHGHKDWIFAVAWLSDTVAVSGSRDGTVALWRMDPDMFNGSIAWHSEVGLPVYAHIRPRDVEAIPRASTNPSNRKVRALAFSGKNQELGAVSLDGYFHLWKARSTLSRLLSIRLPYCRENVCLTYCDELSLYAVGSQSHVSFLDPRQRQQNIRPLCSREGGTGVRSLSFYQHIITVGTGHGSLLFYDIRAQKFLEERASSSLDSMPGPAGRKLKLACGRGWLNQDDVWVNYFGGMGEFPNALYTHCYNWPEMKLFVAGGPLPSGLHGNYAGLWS
UniProt Q6IQ26: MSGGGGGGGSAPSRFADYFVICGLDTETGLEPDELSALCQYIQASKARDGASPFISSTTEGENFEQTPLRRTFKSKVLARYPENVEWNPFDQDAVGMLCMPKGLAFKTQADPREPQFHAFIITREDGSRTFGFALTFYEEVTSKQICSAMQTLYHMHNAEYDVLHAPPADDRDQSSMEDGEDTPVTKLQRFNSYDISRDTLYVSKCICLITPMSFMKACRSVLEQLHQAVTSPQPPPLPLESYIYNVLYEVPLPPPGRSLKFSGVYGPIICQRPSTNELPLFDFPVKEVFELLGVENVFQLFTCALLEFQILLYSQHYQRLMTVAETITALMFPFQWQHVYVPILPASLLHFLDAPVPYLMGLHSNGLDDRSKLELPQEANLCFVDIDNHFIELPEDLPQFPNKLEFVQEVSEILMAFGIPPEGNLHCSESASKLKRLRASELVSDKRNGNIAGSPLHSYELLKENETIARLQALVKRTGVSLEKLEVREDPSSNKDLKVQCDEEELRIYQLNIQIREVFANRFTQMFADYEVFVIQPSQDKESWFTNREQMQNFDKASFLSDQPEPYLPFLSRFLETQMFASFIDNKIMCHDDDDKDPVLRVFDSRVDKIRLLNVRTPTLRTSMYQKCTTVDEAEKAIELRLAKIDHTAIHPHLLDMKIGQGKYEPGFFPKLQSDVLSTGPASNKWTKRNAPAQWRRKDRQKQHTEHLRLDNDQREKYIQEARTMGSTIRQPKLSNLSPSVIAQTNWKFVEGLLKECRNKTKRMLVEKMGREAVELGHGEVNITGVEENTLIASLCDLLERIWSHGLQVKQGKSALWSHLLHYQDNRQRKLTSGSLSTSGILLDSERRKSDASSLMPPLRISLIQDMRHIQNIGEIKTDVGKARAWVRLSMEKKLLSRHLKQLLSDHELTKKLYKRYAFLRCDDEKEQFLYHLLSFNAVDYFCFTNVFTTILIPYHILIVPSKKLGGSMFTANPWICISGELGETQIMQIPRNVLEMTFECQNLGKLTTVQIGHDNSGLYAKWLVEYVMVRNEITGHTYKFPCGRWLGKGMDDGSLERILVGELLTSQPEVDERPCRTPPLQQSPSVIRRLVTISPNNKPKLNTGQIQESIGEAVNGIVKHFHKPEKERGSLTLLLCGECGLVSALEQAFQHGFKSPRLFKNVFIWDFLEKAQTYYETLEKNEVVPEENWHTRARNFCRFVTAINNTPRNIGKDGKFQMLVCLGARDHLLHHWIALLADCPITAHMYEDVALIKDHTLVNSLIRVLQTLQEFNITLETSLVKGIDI

Experiments:
Experiment in all cases: log2 fold change, soluble protein after heating vs DMSO (PISA); higher = thermal stabilisation; K562 lysate, 10 uM; active = over 0.2 and 3.5 SD of the protein, either way, in both replicates (recomputed)
[1] = compound: NCC(=O)Nc1ccc(-n2nc(C(F)(F)F)cc2-c2ccc3c(ccc4ccccc43)c2)cc1
Outline: (§1)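 Following dounce homogenisation of K562 pellets in PBS pH 7.4 with 1 mM MgCl2, crude extract at 1 mg/mL protein was incubated for 30 min with 10 μM compound. Aliquots were then heated for 3 min over 48°C-58°C and pooled, NP-40 was added to 0.5% at 4°C, and soluble protein was recovered as the supernatant at 21,000xg for 90 min. Channel-sum-equalised TMTpro 16plex LC-MS/MS quantified this protein. Each value, from duplicates, is a log-two fold change in thermal stability relative to solvent controls.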

vorinostat = compound: O=C(CCCCCCC(=O)Nc1ccccc1)NO [vorinostat]
Outline: as §1

silmitasertib = compound: O=C(O)c1ccc2c(c1)nc(Nc1cccc(Cl)c1)c1ccncc12 [silmitasertib]
Outline: as §1

[2] = compound: O=C1NC(=O)C(c2cnc3ccccn23)=C1c1cn2c3c(cc(F)cc13)CN(C(=O)N1CCCCC1)CC2
Outline: as §1

entospletinib = compound: c1cn2cc(-c3ccc4cn[nH]c4c3)nc(Nc3ccc(N4CCOCC4)cc3)c2n1 [entospletinib]
Outline: as §1

Measured: log2 fold change

DENND4B (UniProt O75064)
inactive: [1] 0.011 | vorinostat -0.017 | silmitasertib 0.022 | [2] -0.022 | entospletinib -0.019

DCTN5 (UniProt Q9BTE1)
inactive: [1] -0.016 | vorinostat 0.054 | silmitasertib 0.023 | [2] -0.014 | entospletinib -0.127

DDOST (UniProt P39656)
inactive: [1] 0.019 | vorinostat 0.104 | silmitasertib -0.005 | [2] 0.005 | entospletinib -0.027

DDRGK1 (UniProt Q96HY6)
inactive: [1] 0.006 | vorinostat 0.076 | silmitasertib 0.007 | [2] -0.01 | entospletinib -0.024

DDX31 (UniProt Q9H8H2)
inactive: [1] 0.027 | vorinostat 0.039 | silmitasertib -0.041 | [2] -0.048 | entospletinib -0.014

DAZAP2 (UniProt Q15038)
inactive: vorinostat 0.043 | silmitasertib -0.1

CYTH1 (UniProt Q15438)
inactive: vorinostat -0.072 | silmitasertib 0.056 | [2] 0.052 | entospletinib -0.003

DBNL (UniProt Q9UJU6)
inactive: vorinostat -0.063 | silmitasertib 0.002

DEAF1 (UniProt O75398)
inactive: entospletinib -0.003

DCAF12L2 (UniProt Q5VW00)
inactive: [1] 0.022 | entospletinib -0.006

DENND5A (UniProt Q6IQ26)
inactive: [2] -0.02
